Reference: PubChem BioAssay AID1259405 (NCATS, 2018)
This is an unselected part of about 50,000 reagents tested. About 4,000 of all reagents (8%) were called active. 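Mouse siRNA library applied to hamster cells; one well for each siRNA.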

- Assay: 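Mouse-designed siRNAs used to find CHO productivity engineering targets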 (primary screen)
- System: Chinese hamster CHO-K1 ovary cells with stable secreted eGFP expression
- Reagent: single siRNA against mouse genes, 0.8 pmol siRNA per well (2 µl of 400 nM stock)
- Time to read-out: 3 days
- Measured: 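Percent of the per-plate non-targeting control median for intracellular GFP per well by laser scanning cytometry and for cell viability by ATP luminescence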
- Reading the numbers: GFP, % of control: higher = more GFP per well, higher productivity; viability (ATP), % of control: higher = more viable cells (more ATP)
- Hit rule: 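a knock-down is called active if GFP reaches 120% or more of non-targeting control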

| gene symbol | PubChem SID | GFP, % of control | viability (ATP), % of control | call |
| --- | --- | --- | --- | --- |
| Thsd4 (thrombospondin, type I, domain containing 4) | SID363582467 | 102 | 87.4 | inactive |
| Thsd4 (thrombospondin, type I, domain containing 4) | SID363584227 | 97.5 | 74.1 | inactive |
| 9430077A04Rik (RIKEN cDNA 9430077A04 gene) | SID363542667 | 31.9 | 38.1 | inactive |
| 9430077A04Rik (RIKEN cDNA 9430077A04 gene) | SID363546184 | 44.6 | 69.1 | inactive |
| 9430077A04Rik (RIKEN cDNA 9430077A04 gene) | SID363547940 | 80 | 94 | inactive |
| Kctd3 (potassium channel tetramerisation domain containing 3) | SID363540233 | 82.2 | 73.6 | inactive |
| Kctd3 (potassium channel tetramerisation domain containing 3) | SID363541985 | 57.3 | 72.4 | inactive |
| Kctd3 (potassium channel tetramerisation domain containing 3) | SID363566901 | 76.6 | 65.5 | inactive |
| Hira (histone cell cycle regulator) | SID363569494 | 48.8 | 70.3 | inactive |
| Hira (histone cell cycle regulator) | SID363577238 | 39.6 | 72.2 | inactive |
| Hira (histone cell cycle regulator) | SID363578646 | 85.1 | 51.5 | inactive |
| Col6a6 (collagen, type VI, alpha 6) | SID363539523 | 62.3 | 83.3 | inactive |
| Col6a6 (collagen, type VI, alpha 6) | SID363560824 | 90.6 | 67.7 | inactive |
| Col6a6 (collagen, type VI, alpha 6) | SID363564914 | 81.5 | 58.2 | inactive |
| Gnl1 (guanine nucleotide binding protein-like 1) | SID363545985 | 90.3 | 83.4 | inactive |
| Gnl1 (guanine nucleotide binding protein-like 1) | SID363549498 | 64.1 | 87.8 | inactive |
| Gnl1 (guanine nucleotide binding protein-like 1) | SID363563304 | 88.2 | 97.1 | inactive |
| Elovl4 (ELOVL fatty acid elongase 4) | SID363570593 | 83.6 | 92.6 | inactive |
| Elovl4 (ELOVL fatty acid elongase 4) | SID363579393 | 68.8 | 175 | inactive |
| Elovl4 (ELOVL fatty acid elongase 4) | SID363583265 | 72.8 | 92.4 | inactive |
| Pvalb (parvalbumin) | SID363582382 | 66 | 71.9 | inactive |
| Pvalb (parvalbumin) | SID363584142 | 73.2 | 71.1 | inactive |
| Or4f15 (olfactory receptor family 4 subfamily F member 15) | SID363554342 | 83.4 | 78.8 | inactive |
| Or4f15 (olfactory receptor family 4 subfamily F member 15) | SID363567789 | 38.8 | 50.4 | inactive |
| Or4f15 (olfactory receptor family 4 subfamily F member 15) | SID363585146 | 26.4 | 74.1 | inactive |

9 entries already listed, sorted by “viability (ATP), % of control”, descending.
| gene symbol | PubChem SID | GFP, % of control | viability (ATP), % of control | call |
| --- | --- | --- | --- | --- |
| Gnl1 (guanine nucleotide binding protein-like 1) | SID363545985 | 90.3 | 83.4 | inactive |
| Col6a6 (collagen, type VI, alpha 6) | SID363539523 | 62.3 | 83.3 | inactive |
| Kctd3 (potassium channel tetramerisation domain containing 3) | SID363541985 | 57.3 | 72.4 | inactive |
| Hira (histone cell cycle regulator) | SID363577238 | 39.6 | 72.2 | inactive |
| Hira (histone cell cycle regulator) | SID363569494 | 48.8 | 70.3 | inactive |
| Col6a6 (collagen, type VI, alpha 6) | SID363560824 | 90.6 | 67.7 | inactive |
| Kctd3 (potassium channel tetramerisation domain containing 3) | SID363566901 | 76.6 | 65.5 | inactive |
| Col6a6 (collagen, type VI, alpha 6) | SID363564914 | 81.5 | 58.2 | inactive |
| Hira (histone cell cycle regulator) | SID363578646 | 85.1 | 51.5 | inactive |

The results go on.
| gene symbol | PubChem SID | GFP, % of control | viability (ATP), % of control | call |
| --- | --- | --- | --- | --- |
| Scn11a (sodium channel, voltage-gated, type XI, alpha) | SID363574678 | 83.4 | 100 | inactive |
| Scn11a (sodium channel, voltage-gated, type XI, alpha) | SID363575734 | 74.3 | 48 | inactive |
| Scn11a (sodium channel, voltage-gated, type XI, alpha) | SID363580310 | 77.2 | 73.4 | inactive |
| Ccdc9 (coiled-coil domain containing 9) | SID363550027 | 50.9 | 59.6 | inactive |
| Ccdc9 (coiled-coil domain containing 9) | SID363564536 | 96.3 | 72.5 | inactive |
| Ccdc9 (coiled-coil domain containing 9) | SID363588081 | 74.1 | 111 | inactive |
| Cypt4 (cysteine-rich perinuclear theca 4) | SID363540823 | 105 | 114 | inactive |
| Cypt4 (cysteine-rich perinuclear theca 4) | SID363543274 | 149 | 120 | active |
| Cypt4 (cysteine-rich perinuclear theca 4) | SID363552767 | 8.54 | 5.13 | inactive |
| Arrdc2 (arrestin domain containing 2) | SID363546596 | 74.6 | 74.9 | inactive |
| Arrdc2 (arrestin domain containing 2) | SID363548352 | 94.4 | 80.4 | inactive |
| Arrdc2 (arrestin domain containing 2) | SID363560530 | 251 | 100 | active |
| Tob2 (transducer of ERBB2, 2) | SID363556454 | 52.1 | 62.9 | inactive |
| Tob2 (transducer of ERBB2, 2) | SID363586904 | 94.1 | 104 | inactive |
| Tob2 (transducer of ERBB2, 2) | SID363589012 | 126 | 136 | active |
| Prkg1 (protein kinase, cGMP-dependent, type I) | SID363571021 | 64.7 | 69.7 | inactive |
| Mrpl45 (mitochondrial ribosomal protein L45) | SID363562202 | 130 | 77.1 | active |
| Mrpl45 (mitochondrial ribosomal protein L45) | SID363567340 | 97.4 | 82.2 | inactive |
| Mrpl45 (mitochondrial ribosomal protein L45) | SID363584697 | 90.2 | 54.6 | inactive |
| Bicdl2 (BICD family like cargo adaptor 2) | SID363546933 | 58.9 | 50.2 | inactive |
| Bicdl2 (BICD family like cargo adaptor 2) | SID363549745 | 50.5 | 80.2 | inactive |
| Bicdl2 (BICD family like cargo adaptor 2) | SID363587799 | 112 | 112 | inactive |
| Zfp641 (zinc finger protein 641) | SID363555378 | 62.1 | 58.2 | inactive |
| Zfp641 (zinc finger protein 641) | SID363564039 | 49.5 | 60 | inactive |
| Zfp641 (zinc finger protein 641) | SID363587585 | 89.8 | 108 | inactive |
| Mageb1 (MAGE family member B1) | SID363562328 | 66 | 77.3 | inactive |
| Mageb1 (MAGE family member B1) | SID363567466 | 57.4 | 44.1 | inactive |
| Mageb1 (MAGE family member B1) | SID363584823 | 86.8 | 61.4 | inactive |
| U2af1l4 (U2 small nuclear RNA auxiliary factor 1-like 4) | SID363553929 | 31.8 | 56.6 | inactive |
| U2af1l4 (U2 small nuclear RNA auxiliary factor 1-like 4) | SID363561886 | 43.7 | 66.9 | inactive |
| U2af1l4 (U2 small nuclear RNA auxiliary factor 1-like 4) | SID363565624 | 113 | 83.2 | inactive |
| Ndufa12 (NADH:ubiquinone oxidoreductase subunit A12) | SID363572870 | 83.8 | 74.7 | inactive |
| Ndufa12 (NADH:ubiquinone oxidoreductase subunit A12) | SID363577446 | 62.1 | 62.2 | inactive |
| Ndufa12 (NADH:ubiquinone oxidoreductase subunit A12) | SID363580966 | 86.6 | 75.6 | inactive |
